For at least one entry, the source does not settle the construct or the ends of the probe. The comparison behind a weaker result is the experiment's own reference, which may not be listed here.

In this data set the test system is CCR4-NOT FULL (CCR4a E240A:CAF1 D40A) (Homo sapiens). Put plainly: EMSA. The following applies: 1 uM protein, 100 nM RNA, EMSA: 20 mM Tris/HCl pH 7.5, 10 mM NaCl, 2 mM MgCl2, 0.1% BSA, 0.1% Orange G, 3% Ficoll 400, 10% native PAGE in TBE pH …, temperature not stated, recombinant protein, protein details: NOT1 N-His10 and C-StrepII x2, other tags removed, label: labeled. (In EMSA bound probe runs differently from free probe, usually more slowly.)

Regarding “AAAAAAAAAAAAAAAAAAAAAAAAAAAAAA [poly(A)30]”, the binding result is given as “binds more weakly”.

(Values after paper PMC6639331.)
